Reference: US7238786B2, “Monoclonal antibody cPAM4” (Immunomedics, Inc., priority 2002, dated 2007)
Numbering of substitutions follows the chain as printed. Results are given in words; binding and its absence hold for the method and conditions named. Some results given as binding are weak or reduced against the parent protein; the word gives no strength. One block for each binder: values may come before it.

Chains of the proteins cited; added tags and fusions are not shown. Residues count along the entry.
UniProt P15941, residues 24-125: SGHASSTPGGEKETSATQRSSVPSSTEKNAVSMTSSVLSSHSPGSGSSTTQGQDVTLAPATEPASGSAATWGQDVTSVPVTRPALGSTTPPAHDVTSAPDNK

Experiments:
[1] = biological target: PAM4 antigen (MUC1 antigen; pancreatic cancer mucin) (human) (UniProt P15941); experiment: competitive binding assay, unlabeled antibody against 131I-mPAM4 tracer on the antigen
[2] = biological target: PAM4 antigen (MUC1 antigen; pancreatic cancer mucin) (human) (UniProt P15941); experiment: immunohistochemical staining studies

binding [1]: binds
B1: chimeric PAM4 antibody (antibody, V domains shown)
VL: DIQLTQSPAIMSASPGEKVTMTCSASSSVSSSYLYWYQQKPGSSPKLWIYSTSNLASGVPARFSGSGSGTSYSLTISSMEAEDAASYFCHQWNRYPYTFGGGTKLEIKR
V domain: QVQLQESGPELVKPGASVKMSCKASGYTFPSYVLHWVKQKPGQGLEWIGYINPYNDGTQYNEKFKGKATLTSDKSSSTAYMELSRLTSEDSAVYYCARGFGGSYGFAYWGQGTLITVSA

B2: murine PAM4 monoclonal antibody (antibody, V domains shown)
VL: DIVMTQSPAIMSASPGEKVTMTCSASSSVSSSYLYWYQQKPGSSPKLWIYSTSNLASGVPARFSGSGSGTSYSLTISSMEAEDAASYFCHQWNRYPYTFGGGTKLEIK
V domain: B1 V domain with Q1E
binding [2]: binds
binding [1]: binds
